From the supplement of paper PMC10849652
The list shows a part of the results.

By UniProt entry, the sequences of proteins in these tests, tags left out. Where a name states a change or a piece, a line headed by the entry shows the natural chain unless it says otherwise.
UniProt Q8N0W3: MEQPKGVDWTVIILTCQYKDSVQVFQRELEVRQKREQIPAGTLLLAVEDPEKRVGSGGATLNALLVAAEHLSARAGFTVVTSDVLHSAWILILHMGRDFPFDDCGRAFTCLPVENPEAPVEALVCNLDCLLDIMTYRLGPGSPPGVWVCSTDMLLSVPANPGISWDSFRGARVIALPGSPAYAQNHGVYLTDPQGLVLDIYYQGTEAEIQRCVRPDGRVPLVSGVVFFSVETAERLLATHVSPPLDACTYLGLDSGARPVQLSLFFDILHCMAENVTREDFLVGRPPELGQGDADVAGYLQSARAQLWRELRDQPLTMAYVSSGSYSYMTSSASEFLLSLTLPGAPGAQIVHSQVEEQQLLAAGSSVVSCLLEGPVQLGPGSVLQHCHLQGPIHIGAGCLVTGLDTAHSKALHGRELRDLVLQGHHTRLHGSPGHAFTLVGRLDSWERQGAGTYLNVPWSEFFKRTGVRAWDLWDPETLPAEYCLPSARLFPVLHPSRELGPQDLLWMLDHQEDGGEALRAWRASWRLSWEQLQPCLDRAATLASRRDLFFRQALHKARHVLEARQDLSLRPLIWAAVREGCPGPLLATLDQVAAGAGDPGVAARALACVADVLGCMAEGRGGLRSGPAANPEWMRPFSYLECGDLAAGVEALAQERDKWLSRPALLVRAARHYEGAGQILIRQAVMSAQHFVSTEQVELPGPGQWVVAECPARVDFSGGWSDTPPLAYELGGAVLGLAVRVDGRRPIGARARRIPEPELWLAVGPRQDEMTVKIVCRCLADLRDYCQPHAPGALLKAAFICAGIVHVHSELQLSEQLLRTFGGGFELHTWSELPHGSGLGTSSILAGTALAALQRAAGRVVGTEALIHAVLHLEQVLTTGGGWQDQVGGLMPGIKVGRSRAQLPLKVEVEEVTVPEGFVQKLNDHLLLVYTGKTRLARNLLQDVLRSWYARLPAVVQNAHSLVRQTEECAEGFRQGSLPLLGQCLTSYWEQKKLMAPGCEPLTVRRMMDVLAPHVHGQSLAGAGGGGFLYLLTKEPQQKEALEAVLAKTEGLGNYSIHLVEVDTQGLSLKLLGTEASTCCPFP
UniProt Q96AC1: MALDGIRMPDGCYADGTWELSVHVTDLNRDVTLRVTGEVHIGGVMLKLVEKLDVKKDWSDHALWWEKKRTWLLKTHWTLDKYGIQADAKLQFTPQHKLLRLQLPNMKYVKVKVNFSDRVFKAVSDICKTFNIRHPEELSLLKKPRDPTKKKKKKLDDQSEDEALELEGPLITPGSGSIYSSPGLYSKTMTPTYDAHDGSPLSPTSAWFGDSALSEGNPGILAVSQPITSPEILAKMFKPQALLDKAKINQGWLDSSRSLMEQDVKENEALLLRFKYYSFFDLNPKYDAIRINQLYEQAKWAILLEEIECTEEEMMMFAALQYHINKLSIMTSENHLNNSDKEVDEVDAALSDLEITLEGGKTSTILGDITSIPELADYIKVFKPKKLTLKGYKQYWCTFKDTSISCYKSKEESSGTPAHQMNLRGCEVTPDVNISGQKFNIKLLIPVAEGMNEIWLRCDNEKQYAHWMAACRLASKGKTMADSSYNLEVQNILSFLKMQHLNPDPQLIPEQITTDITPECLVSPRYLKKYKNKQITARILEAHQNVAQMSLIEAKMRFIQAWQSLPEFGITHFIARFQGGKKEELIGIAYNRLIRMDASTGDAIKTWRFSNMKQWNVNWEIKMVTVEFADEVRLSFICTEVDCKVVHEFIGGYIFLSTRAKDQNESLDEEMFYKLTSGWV
UniProt Q9H479: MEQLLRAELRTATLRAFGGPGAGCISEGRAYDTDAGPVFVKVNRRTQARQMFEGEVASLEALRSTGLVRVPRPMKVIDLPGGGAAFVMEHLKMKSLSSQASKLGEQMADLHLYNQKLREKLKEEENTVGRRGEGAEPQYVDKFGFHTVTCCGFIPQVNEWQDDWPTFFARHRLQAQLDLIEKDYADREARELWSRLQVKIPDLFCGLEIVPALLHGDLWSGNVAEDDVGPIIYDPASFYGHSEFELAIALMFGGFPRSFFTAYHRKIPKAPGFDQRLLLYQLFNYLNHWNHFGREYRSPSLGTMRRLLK
UniProt Q6UN15: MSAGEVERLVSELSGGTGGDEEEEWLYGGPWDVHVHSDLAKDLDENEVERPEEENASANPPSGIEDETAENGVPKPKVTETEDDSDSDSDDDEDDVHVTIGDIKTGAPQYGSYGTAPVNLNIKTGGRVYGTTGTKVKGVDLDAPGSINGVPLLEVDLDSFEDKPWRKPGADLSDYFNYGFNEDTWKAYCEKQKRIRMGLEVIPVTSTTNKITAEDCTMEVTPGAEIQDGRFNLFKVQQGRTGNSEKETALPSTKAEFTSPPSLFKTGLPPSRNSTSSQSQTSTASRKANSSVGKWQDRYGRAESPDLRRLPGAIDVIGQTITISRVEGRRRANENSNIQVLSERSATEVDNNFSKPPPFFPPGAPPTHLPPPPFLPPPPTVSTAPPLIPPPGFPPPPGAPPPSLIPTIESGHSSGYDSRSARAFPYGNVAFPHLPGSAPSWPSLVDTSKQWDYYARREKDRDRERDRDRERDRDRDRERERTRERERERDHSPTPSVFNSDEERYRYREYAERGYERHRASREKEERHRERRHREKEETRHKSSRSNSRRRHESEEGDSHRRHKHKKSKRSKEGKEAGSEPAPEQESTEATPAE
UniProt P10109: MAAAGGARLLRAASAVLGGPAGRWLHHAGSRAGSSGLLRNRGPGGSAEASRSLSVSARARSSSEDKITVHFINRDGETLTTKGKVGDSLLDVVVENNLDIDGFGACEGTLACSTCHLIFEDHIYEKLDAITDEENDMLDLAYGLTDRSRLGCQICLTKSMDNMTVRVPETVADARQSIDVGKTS
UniProt Q14254: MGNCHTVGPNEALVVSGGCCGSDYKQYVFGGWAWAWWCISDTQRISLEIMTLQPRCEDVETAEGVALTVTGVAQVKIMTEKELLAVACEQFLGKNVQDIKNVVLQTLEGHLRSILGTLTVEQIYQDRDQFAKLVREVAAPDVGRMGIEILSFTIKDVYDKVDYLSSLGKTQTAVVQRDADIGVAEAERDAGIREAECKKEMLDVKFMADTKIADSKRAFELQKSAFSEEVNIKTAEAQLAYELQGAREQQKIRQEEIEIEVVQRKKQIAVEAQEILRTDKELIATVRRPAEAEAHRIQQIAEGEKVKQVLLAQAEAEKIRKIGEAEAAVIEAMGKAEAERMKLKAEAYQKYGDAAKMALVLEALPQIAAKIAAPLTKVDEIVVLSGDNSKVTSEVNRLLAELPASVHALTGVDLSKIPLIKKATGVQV
UniProt P35916, whole entry, looked up: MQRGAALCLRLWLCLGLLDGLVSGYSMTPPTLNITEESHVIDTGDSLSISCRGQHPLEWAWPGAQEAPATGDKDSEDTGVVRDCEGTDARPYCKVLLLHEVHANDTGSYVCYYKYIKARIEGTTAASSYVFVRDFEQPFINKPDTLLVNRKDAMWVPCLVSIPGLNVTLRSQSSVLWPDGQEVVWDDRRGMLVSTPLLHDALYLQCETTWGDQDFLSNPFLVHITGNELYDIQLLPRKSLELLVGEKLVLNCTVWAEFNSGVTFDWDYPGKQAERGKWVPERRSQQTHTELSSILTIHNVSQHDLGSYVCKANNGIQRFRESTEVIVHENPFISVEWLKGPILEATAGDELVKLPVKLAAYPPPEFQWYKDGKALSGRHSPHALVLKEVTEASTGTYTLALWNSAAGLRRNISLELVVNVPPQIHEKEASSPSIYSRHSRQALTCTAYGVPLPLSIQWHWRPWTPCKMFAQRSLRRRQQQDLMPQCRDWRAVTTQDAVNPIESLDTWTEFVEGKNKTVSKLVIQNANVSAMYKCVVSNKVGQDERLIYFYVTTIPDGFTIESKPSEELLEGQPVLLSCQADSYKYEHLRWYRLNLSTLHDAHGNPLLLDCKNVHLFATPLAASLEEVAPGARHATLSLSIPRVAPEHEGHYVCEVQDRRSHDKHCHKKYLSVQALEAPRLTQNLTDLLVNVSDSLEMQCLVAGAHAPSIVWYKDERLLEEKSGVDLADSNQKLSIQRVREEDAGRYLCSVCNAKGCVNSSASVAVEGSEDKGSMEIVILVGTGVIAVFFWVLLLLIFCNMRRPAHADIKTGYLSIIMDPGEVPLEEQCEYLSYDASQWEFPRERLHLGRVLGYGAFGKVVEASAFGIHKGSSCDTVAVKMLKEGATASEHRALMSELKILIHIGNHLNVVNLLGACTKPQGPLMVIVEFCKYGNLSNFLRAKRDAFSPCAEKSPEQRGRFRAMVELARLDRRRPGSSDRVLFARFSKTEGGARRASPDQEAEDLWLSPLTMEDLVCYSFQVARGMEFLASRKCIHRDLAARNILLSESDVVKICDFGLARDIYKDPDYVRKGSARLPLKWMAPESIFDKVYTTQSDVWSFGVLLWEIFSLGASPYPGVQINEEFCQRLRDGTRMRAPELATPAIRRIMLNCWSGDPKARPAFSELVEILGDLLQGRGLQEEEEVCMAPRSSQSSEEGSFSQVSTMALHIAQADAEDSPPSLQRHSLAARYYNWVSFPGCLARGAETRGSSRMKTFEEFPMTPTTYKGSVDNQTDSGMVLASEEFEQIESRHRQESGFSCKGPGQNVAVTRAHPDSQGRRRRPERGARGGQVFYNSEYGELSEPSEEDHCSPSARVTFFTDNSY
UniProt Q8NFF5: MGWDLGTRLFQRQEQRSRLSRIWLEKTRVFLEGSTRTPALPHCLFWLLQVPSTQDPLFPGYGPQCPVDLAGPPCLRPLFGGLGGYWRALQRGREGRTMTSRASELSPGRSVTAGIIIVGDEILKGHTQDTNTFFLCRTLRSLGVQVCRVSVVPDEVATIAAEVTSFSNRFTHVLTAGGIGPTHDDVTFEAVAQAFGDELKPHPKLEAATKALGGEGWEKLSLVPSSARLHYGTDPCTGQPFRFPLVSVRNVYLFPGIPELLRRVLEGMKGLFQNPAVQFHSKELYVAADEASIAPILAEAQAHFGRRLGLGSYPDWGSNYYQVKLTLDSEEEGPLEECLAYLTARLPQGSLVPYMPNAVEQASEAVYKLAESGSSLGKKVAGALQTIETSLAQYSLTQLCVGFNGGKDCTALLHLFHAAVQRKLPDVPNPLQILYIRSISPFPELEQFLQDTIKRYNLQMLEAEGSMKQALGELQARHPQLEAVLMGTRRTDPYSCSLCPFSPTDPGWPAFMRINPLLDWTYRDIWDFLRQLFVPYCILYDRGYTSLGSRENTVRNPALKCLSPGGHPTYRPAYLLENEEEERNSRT
UniProt Q13045: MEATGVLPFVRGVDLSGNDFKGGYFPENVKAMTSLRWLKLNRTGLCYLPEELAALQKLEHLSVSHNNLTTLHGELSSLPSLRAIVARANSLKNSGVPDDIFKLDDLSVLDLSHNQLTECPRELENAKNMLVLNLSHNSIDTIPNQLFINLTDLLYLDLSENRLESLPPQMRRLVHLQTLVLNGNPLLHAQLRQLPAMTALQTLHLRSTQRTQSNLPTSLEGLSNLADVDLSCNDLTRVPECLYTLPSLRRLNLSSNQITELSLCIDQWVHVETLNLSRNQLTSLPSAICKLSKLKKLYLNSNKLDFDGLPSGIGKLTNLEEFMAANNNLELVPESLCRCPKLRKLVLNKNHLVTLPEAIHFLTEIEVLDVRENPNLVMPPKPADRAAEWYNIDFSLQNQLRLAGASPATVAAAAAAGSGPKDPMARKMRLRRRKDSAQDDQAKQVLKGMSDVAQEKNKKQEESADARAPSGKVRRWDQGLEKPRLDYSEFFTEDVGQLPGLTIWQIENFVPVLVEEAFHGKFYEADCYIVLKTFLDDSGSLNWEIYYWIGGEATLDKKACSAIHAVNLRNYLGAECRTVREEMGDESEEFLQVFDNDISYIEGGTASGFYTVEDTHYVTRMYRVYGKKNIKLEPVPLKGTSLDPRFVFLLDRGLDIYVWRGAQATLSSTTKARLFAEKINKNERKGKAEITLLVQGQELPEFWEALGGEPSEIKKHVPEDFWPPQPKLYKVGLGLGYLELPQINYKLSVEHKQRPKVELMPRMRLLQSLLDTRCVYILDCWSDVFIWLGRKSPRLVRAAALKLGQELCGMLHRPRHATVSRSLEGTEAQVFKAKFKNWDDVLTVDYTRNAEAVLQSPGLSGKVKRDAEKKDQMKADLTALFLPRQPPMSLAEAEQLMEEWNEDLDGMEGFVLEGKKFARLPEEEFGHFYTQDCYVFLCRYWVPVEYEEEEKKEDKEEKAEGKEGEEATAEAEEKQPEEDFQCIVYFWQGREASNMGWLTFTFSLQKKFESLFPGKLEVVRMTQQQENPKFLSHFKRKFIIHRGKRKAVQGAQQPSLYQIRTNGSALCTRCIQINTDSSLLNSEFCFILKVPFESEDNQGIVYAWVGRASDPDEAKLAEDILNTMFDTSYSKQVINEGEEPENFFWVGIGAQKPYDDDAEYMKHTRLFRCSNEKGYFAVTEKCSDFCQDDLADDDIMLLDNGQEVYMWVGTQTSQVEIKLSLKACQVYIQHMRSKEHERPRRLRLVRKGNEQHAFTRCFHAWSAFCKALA

compound: Cn1cncc1[C@@](N)(c1ccc(Cl)cc1)c1ccc2c(c1)c(-c1cccc(Cl)c1)cc(=O)n2C [tipifarnib]; assay: log2 fold change, soluble protein after heating vs DMSO (PISA); higher = thermal stabilisation; K562 cells, 10 uM, 30 min; active = over 0.2 and 3.5 SD of the protein, either way, in both replicates (recomputed)
Outline: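 Soluble protein was quantified by TMTpro 16plex LC-MS/MS after channel sums were equalised. It was obtained as the supernatant after 21,000xg for 90 min from pooled aliquots of K562 cells (2×10^6 cells/mL, 10 μM compound, 30 min) heated for 3 min across 48°C-58°C and extracted in PBS with 0.5% NP-40 at 4°C. Thermal stability values are relative to control samples and come from duplicates. They are given as log2 fold changes.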

| Target | log2 fold change |
| --- | --- |
| FBXO22 (UniProt Q8NEZ5) | inactive: -0.051 |
| FNBP4 isoform 2 (UniProt Q8N3X1) | inactive: 0.058 |
| FGFR1OP (UniProt O95684) | inactive: -0.051 |
| FCSK isoform 2 (UniProt Q8N0W3) | inactive: -0.084 |
| FAM76B (UniProt Q5HYJ3) | inactive: 0.017 |
| FLVCR1 (UniProt Q9Y5Y0) | inactive: 0.033 |
| FAM98A (UniProt Q8NCA5) | inactive: -0.008 |
| FERMT2 isoform 3 (UniProt Q96AC1) | inactive: 0.032 |
| FN3K (UniProt Q9H479) | inactive: -0.038 |
| FEM1B (UniProt Q9UK73) | inactive: 0.007 |
| FN1 isoform 1 (UniProt P02751) | inactive: 0.096 |
| FN3KRP (UniProt Q9HA64) | inactive: 0 |
| FIP1L1 (UniProt Q6UN15) | inactive: 0.083 |
| FLYWCH2 (UniProt Q96CP2) | inactive: -0.02 |
| FDX1 (UniProt P10109) | inactive: 0.013 |
| FLOT2 (UniProt Q14254) | inactive: 0.116 |
| FAM98B (UniProt Q52LJ0) | inactive: -0.104 |
| FLOT1 (UniProt O75955) | inactive: 0.125 |
| FBXO5 (UniProt Q9UKT4) | inactive: -0.003 |
| FLT4 (UniProt P35916) | inactive: -0.016 |
| FLAD1 (UniProt Q8NFF5) | inactive: 0.058 |
| FLII (UniProt Q13045) | inactive: -0.034 |
| FLNB isoform 8 (UniProt O75369) | inactive: -0.031 |

Some of the entries so far, as labelled records.
FLII (UniProt Q13045)
  log2 fold change: inactive: -0.034
FLNB isoform 8 (UniProt O75369)
  log2 fold change: inactive: -0.031
